PubChem BioAssay AID1259308 – NCATS, 2017

Test: 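Genes whose loss raises luciferase production in HEK293 cells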 (primary screen)
Cells: human HEK293 embryonic kidney cells stably expressing firefly luciferase (HEK-CMV-Luc2-Hygro)
Knock-down reagent: single siRNA against human genes, 0.8 pmol siRNA per well
Timing: 72 h
Detection: 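Luciferase light (ONE-Glo) measured on one replicate plate set and viability (CellTiter-Glo) on the other, scaled to a negative control siRNA, with robust z-scores and luciferase per cell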
Scale: total luciferase, z-score and total luciferase, % of control: higher = more reporter protein produced; luciferase per cell, z-score: higher = more reporter output per viable cell; viable cells, % of control: higher = more viable cells
Rule for the call: 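An siRNA counts as active if its total luciferase robust z-score exceeds 3; genes with two or more such siRNAs out of three were retested with fresh siRNAs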
Meaning of the calls: active = raised luciferase; inactive = no rise
In all, the deposit lists about 59,000 reagents; shown is a random part of them. About 1,510 of them (2.6%) were called active. 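Calls use total luciferase alone and ignore viability, so some active siRNAs may act by altering cell number.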 Entries without a mark were called inactive. The numbers tell different reagents against one gene apart.

Target gene | reagent | total luciferase, z-score | total luciferase, % of control | luciferase per cell, z-score | viable cells, % of control
NPRL2 | 1 | 0.276 | 87.4 | 0.0205 | 97.1
NPRL2 | 2 | -1.31 | 55.8 | -1.2 | 85.6
NPRL2 | 3 | 2.2 | 126 | 3.76 | 52.2
UBA6 | 1 | -0.636 | 69.2 | 0.399 | 69.7
UBA6 | 2 | -1.5 | 52.1 | -1.18 | 79.6
UBA6 | 3 | -0.706 | 67.8 | -0.858 | 95
SKA2P1 | 1 | 2.43 | 130 | 2.82 | 69.2
SKA2P1 | 2 | -0.698 | 68 | -0.89 | 96.1
SKA2P1 | 3 | 0.822 | 98.2 | 1.18 | 80.4
BRICD5 | 1 | 0.701 | 95.8 | 1.16 | 78.9
BRICD5 | 2 | 0.568 | 93.2 | 0.761 | 85.2
BRICD5 | 3 | -0.248 | 76.9 | 0.685 | 71.8
NALF1 | 1 | 0.201 | 85.9 | 0.136 | 92.6
NALF1 | 2 | 0.149 | 84.9 | 0.127 | 91.7
NALF1 | 3 | 0.811 | 98 | 0.22 | 103
MME | 1 | 0.841 | 98.6 | 0.179 | 105
MME | 2 | -1.8 | 46.1 | -0.264 | 55.2
MME | 3 | 3.31 (active) | 148 | 3.18 | 71.5
CHMP1B | 1 | 0.994 | 102 | 0.766 | 92.8
CHMP1B | 2 | -0.226 | 77.4 | 2.18 | 48.8
CHMP1B | 3 | 0.199 | 85.8 | 0.246 | 89.9
MB | 1 | 0.219 | 86.2 | 0.0163 | 96
MB | 2 | 1.35 | 109 | 1.01 | 93
MB | 3 | -0.0597 | 80.7 | 0.381 | 81.6
RFXANK | 1 | 1.01 | 102 | 0.935 | 89.1
RFXANK | 2 | -0.491 | 72.1 | -0.641 | 95.4
RFXANK | 3 | -0.0893 | 80.1 | -0.0254 | 90.1
SERPINB9 | 1 | 0.928 | 100 | 0.397 | 101
SERPINB9 | 2 | 1.4 | 110 | 1.15 | 90.7
SERPINB9 | 3 | -1.24 | 57.2 | -1.34 | 90.9
GPR82 | 1 | -0.388 | 74.2 | -0.155 | 86.3
GPR82 | 2 | -0.832 | 65.3 | -1.44 | 107
GPR82 | 3 | -0.966 | 62.7 | -1.17 | 95.3
SRPX2 | 1 | 0.443 | 90.7 | 0.423 | 90.7
SRPX2 | 2 | 0.251 | 86.9 | -0.236 | 103
SRPX2 | 3 | 1.56 | 113 | 1.01 | 96.6
CRNKL1 | 1 | -0.539 | 71.2 | 1.99 | 47.1
CRNKL1 | 2 | 1.09 | 104 | 2.59 | 58.6
CRNKL1 | 3 | 0.173 | 85.3 | 1.65 | 61.8
FGG | 1 | -1.36 | 54.9 | -0.953 | 78.9
FGG | 2 | -0.953 | 62.9 | -1.03 | 92.3
FGG | 3 | -1.32 | 55.7 | -1.15 | 84.3
UGCG | 1 | -0.869 | 64.6 | -0.512 | 82.6
UGCG | 2 | -0.222 | 77.5 | 0.217 | 81.8
UGCG | 3 | -0.0685 | 80.5 | -0.784 | 111
GCFC2 | 1 | -0.792 | 66.1 | -0.957 | 95.1
GCFC2 | 2 | -0.479 | 72.4 | -0.617 | 95.1
GCFC2 | 3 | -1.24 | 57.2 | -1.3 | 90.1
NRBF2 | 1 | -0.32 | 75.5 | -0.906 | 107
NRBF2 | 2 | 0.893 | 99.6 | 0.371 | 101
NRBF2 | 3 | 1.9 | 120 | 1.94 | 80.2
DNAAF10 | 1 | 0.906 | 99.9 | 0.636 | 94.4
DNAAF10 | 2 | -0.482 | 72.3 | -0.0436 | 81.7
DNAAF10 | 3 | -0.501 | 71.9 | -0.696 | 96.5
ZNF629 | 1 | -0.308 | 75.8 | -0.133 | 87.7
ZNF629 | 2 | -0.681 | 68.3 | -0.282 | 82.3
ZNF629 | 3 | 0.341 | 88.7 | 0.443 | 88.2

As entered above.
SRPX2 #1, total luciferase, % of control: 90.7
Under “luciferase per cell, z-score”, MME #3 shows 3.18 (active)
SERPINB9 #3, total luciferase, z-score → -1.24
